Values from PubChem BioAssay AID1671195 (Yale University, 2021)
The whole screen tested about 22,000 reagents; this is an unselected part. About 1,510 of them (6.9%) count as active. 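Active includes knockdowns raising or lowering LDL uptake; positive z-scores mean more uptake, negative mean less.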 Reagents against one gene are numbered here.

- Screen: 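Knockdowns that increase or decrease uptake of fluorescent LDL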 (primary screen)
- Cell system: human Huh7 hepatoma cells
- Knock-down reagent: siRNA pool against human genes, 18 nM
- Duration: about 2 to 2.5 days of knockdown, then 8 h LDL uptake
- Challenge: DiI-labelled LDL at 30 µg/ml for 8 h, in lipoprotein-deficient serum medium
- Measurement: 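Per-cell DiI-LDL intensity by automated imaging; well means scaled to the plate median and given as a robust z-score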
- Scale: robust z-score: higher = more LDL uptake after knockdown
- Active means: 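Active when two or more replicates show a robust z-score above 2 or below -2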

Depletion of RPSAP27 came out at: robust z-score, replicate 1 = 0.712; robust z-score, replicate 2 = 1.06; robust z-score, replicate 3 = -0.342; inactive.
OR1J2 gave robust z-score, replicate 1 = 2.69; robust z-score, replicate 2 = 0.353; robust z-score, replicate 3 = -1.47; inactive.
LINC00671 showed robust z-score, replicate 1 = -1.01; robust z-score, replicate 2 = -1.1; robust z-score, replicate 3 = -0.33; inactive.
Against LOC157813 (retired record), the entry reads robust z-score, replicate 1 = 1.15; robust z-score, replicate 2 = 0.997; robust z-score, replicate 3 = 0.0528; inactive.
Against SUCLG1, the values are robust z-score, replicate 1 = -0.731; robust z-score, replicate 2 = -0.509; robust z-score, replicate 3 = -0.665; inactive.
Against ORMDL3, the entry reads robust z-score, replicate 1 = 0.313; robust z-score, replicate 2 = 0.685; robust z-score, replicate 3 = 1.02; inactive.
FSD1 scored robust z-score, replicate 1 = 0.12; robust z-score, replicate 2 = -0.25; robust z-score, replicate 3 = 1.69; inactive.
Against TTC17, the values are robust z-score, replicate 1 = 0.327; robust z-score, replicate 2 = -0.946; robust z-score, replicate 3 = 0.595; inactive.
DIO3 scored robust z-score, replicate 1 = 0.827; robust z-score, replicate 2 = 0.943; robust z-score, replicate 3 = 0.294; inactive.
RFC4 showed robust z-score, replicate 1 = 0.373; robust z-score, replicate 2 = 0.429; robust z-score, replicate 3 = 0.398; inactive.
BCL2L15 scored robust z-score, replicate 1 = 1.12; robust z-score, replicate 2 = 1.05; robust z-score, replicate 3 = 1.31; inactive.
NBEAL1 #1 gave robust z-score, replicate 1 = -1.63; robust z-score, replicate 2 = -2.39; robust z-score, replicate 3 = -2.56; active.
NBEAL1 #2 gave robust z-score, replicate 1 = 0.98; robust z-score, replicate 2 = 1.84; robust z-score, replicate 3 = 1.11; inactive.
WWTR1 gave robust z-score, replicate 1 = 0.153; robust z-score, replicate 2 = 0.608; robust z-score, replicate 3 = 1.74; inactive.

Called active (from the list above):
NBEAL1 #1: robust z-score, replicate 1 = -1.63; robust z-score, replicate 2 = -2.39; robust z-score, replicate 3 = -2.56; Outcome = active

The list goes on:
Against SAP30L-AS1, the values are robust z-score, replicate 1 = -1.26; robust z-score, replicate 2 = -1.19; robust z-score, replicate 3 = -1.93; inactive.
IFI27L1 showed robust z-score, replicate 1 = -0.361; robust z-score, replicate 2 = -0.781; robust z-score, replicate 3 = -0.908; inactive.
With knock-down of TMEM119, the screen gave robust z-score, replicate 1 = 1.78; robust z-score, replicate 2 = 1.06; robust z-score, replicate 3 = 1.17; inactive.
After knock-down of FPGS the results were robust z-score, replicate 1 = 0.037; robust z-score, replicate 2 = 0.343; robust z-score, replicate 3 = 0.378; inactive.
KRT82 gave robust z-score, replicate 1 = -0.567; robust z-score, replicate 2 = -0.196; robust z-score, replicate 3 = -0.318; inactive.
Against POU4F1, the entry reads robust z-score, replicate 1 = 0.569; robust z-score, replicate 2 = 0.894; robust z-score, replicate 3 = 1.27; inactive.
Silencing of UCK2 came out at: robust z-score, replicate 1 = 2.22; robust z-score, replicate 2 = -0.489; robust z-score, replicate 3 = 1.76; inactive.
Depletion of FOLR1P1 came out at: robust z-score, replicate 1 = -0.419; robust z-score, replicate 2 = -0.162; robust z-score, replicate 3 = -0.71; inactive.
Depletion of IL6 resulted in: robust z-score, replicate 1 = -0.316; robust z-score, replicate 2 = -0.263; robust z-score, replicate 3 = 0.231; inactive.
DPEP1 gave robust z-score, replicate 1 = -0.415; robust z-score, replicate 2 = 0.00312; robust z-score, replicate 3 = -0.254; inactive.
Depletion of LOC401957 came out at: robust z-score, replicate 1 = 1.16; robust z-score, replicate 2 = 1.17; robust z-score, replicate 3 = 1.14; inactive.
After knock-down of POLR1G the results were robust z-score, replicate 1 = -1.56; robust z-score, replicate 2 = -1.53; robust z-score, replicate 3 = -1.53; inactive.
With knock-down of CACNB1, the record shows robust z-score, replicate 1 = -0.684; robust z-score, replicate 2 = -0.509; robust z-score, replicate 3 = -0.967; inactive.
LOC440840 (retired record) scored robust z-score, replicate 1 = -2.13; robust z-score, replicate 2 = -0.682; robust z-score, replicate 3 = -0.912; inactive.
Depletion of MYL10 resulted in: robust z-score, replicate 1 = -0.567; robust z-score, replicate 2 = -0.353; robust z-score, replicate 3 = -0.834; inactive.
Silencing of TMEM45A gave: robust z-score, replicate 1 = 0.468; robust z-score, replicate 2 = -0.59; robust z-score, replicate 3 = 1.25; inactive.
